Measured values published in patent publication US20140243210A1, “PURIFICATION OF IMMUNOGLOBULINS USING AFFINITY CHROMATOGRAPHY AND PEPTIDE LIGANDS” (priority 2005, published 2014).
Some results were stated once for a whole list of compounds, not compound by compound. Some ranges recur; such a range may be that of the whole group of compounds.

What was measured:
[1] = test system: intact HIgG; assay: Secondary screening, batch format, competitive and non-competitive modes; type: binding, human; details: second round; HIgG in MEM; radiolabel extent 2.9%
[2] = test system: HIgG; assay: Adsorption isotherm measurements, Langmuir model; type: binding, human; details: Table 6; direct Langmuir fit; 0.1 meq/g; PBS pH 7.4

Row | Substance | Competitive condition, Bound [1] | qm [2]
1 | HLKWYA (immobilised on Toyopearl resin; Immunoglobulin binding peptide sequence) [hexapeptide ligand on Toyopearl resin] | 23-26% | –
2 | HPWYVT (immobilised on Toyopearl resin; Immunoglobulin binding peptide sequence) [hexapeptide ligand on Toyopearl resin] | 23-26% | –
3 | HVHYYW [hexapeptide ligand on Toyopearl resin, 0.1 meq/g] | – | 130 to 160 mg/g
4 | HYFKFD [hexapeptide ligand on Toyopearl resin, 0.1 meq/g] | – | 130 to 160 mg/g
5 | truncation of the subunit GFRKYLHFRRHLL of a multiple antigenic peptide (MAP) (Immunoglobulin binding peptide sequence) | – | 130 to 160 mg/g
